Laboratory results: the supplement of paper PMC3334620
The full ranking holds about 33,000 sequences; the median of “E-score (-0.5 to 0.5)” is about -0.015, and the highest 2% start at about 0.3. The list shows a part of the results.

Molecular target: T1, Abf1 (UniProt P14164)
T1 sequence: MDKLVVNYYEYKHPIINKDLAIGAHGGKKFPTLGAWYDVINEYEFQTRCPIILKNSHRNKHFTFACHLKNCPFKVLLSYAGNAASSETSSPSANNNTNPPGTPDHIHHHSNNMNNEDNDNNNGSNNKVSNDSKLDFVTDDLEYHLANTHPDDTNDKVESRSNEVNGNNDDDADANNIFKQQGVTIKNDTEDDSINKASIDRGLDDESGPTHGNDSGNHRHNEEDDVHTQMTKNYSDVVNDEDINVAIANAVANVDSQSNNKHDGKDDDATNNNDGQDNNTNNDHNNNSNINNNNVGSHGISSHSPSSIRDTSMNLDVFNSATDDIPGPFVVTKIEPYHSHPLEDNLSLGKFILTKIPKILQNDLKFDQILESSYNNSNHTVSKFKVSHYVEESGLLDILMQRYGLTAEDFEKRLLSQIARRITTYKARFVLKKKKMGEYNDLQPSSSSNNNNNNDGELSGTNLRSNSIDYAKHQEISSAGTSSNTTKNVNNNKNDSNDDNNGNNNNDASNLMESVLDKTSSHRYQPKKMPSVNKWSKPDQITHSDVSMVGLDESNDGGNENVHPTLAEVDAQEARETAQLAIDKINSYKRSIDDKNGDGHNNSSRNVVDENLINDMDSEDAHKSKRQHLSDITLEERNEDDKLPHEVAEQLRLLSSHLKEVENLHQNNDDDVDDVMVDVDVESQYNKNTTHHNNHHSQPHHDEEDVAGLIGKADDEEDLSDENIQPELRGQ
Assay: PBM E-score (8-mer binding enrichment) (E-score (-0.5 to 0.5)); higher = stronger / more preferred TF binding
Conditions: protein concentration: 200 nM; construct: GST-full length
Summary of the method: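 Using PURExpress in vitro transcription/translation, GST-tagged yeast transcription factors were made in full-length or DNA-binding-domain form. These were applied at about 100-200 nM to double-stranded universal all-10-mer Agilent arrays, and bound protein was detected with fluorescent anti-GST. Scans were normalised with masliner before the Universal PBM Analysis Suite assigned E-scores to ungapped eight-base words pooled with their reverse complements.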

| Sequence | PBM E-score |
| --- | --- |
| ATAATATA | 0.186 |
| ATCACGTG | 0.178 |
| AATTAATA | 0.302 |
| CAACTTAC | -0.0125 |
| AATCAAGC | -0.066 |
| AGACACCC | -0.18 |
| AGCCGCTA | -0.292 |
| CATCAGGA | -0.0271 |
| AGGTGTCG | -0.0394 |
| CTGGCCCA | -0.303 |
| CGCATGAC | 0.207 |
| TCGTGCAA | 0.361 |
| CATAATCA | 0.253 |
| CCTCTCTC | -0.312 |
| ACTGATGC | -0.171 |
| AGTGTCTG | -0.162 |
| CCGGCTTC | -0.166 |
| GAGGGTGC | -0.329 |
| AAGTTGAT | 0.0854 |
| AAGCTTCG | 0.00449 |
| ACTTATTC | -0.00412 |
| ACCCGGTC | -0.081 |
| CGGCCAAA | 0.00205 |
| TCACGTAA | 0.0101 |
| GTCGATTA | 0.0468 |

At a glance, part of the list above.

| Sequence | PBM E-score |
| --- | --- |
| ATCACGTG | 0.178 |
| AATTAATA | 0.302 |

(next part)

| Sequence | PBM E-score |
| --- | --- |
| CTGTTAAG | -0.0937 |
| CACCGCTA | -0.0615 |
| ATTGTTAA | -0.00049 |
| AGCAAGCA | -0.137 |
| GCTTGACA | -0.163 |
| AACTGTGT | 0.064 |
| GCCCCCGC | -0.435 |
| ACGGCCAT | -0.0106 |
| GACGCTGA | -0.0836 |
| TCCATGAA | 0.0902 |
| CGAGCAAC | 0.0494 |
| GGTTACCA | 0.104 |
| ATTGGCAA | 0.11 |
| CGTCGGGA | 0.165 |
| CTGGTCGC | -0.14 |
| GTAGCGGA | 0.0389 |
| ATCACGCA | 0.272 |
| AAAGCGCT | 0.115 |
| TAGAGGAA | -0.0779 |
| ACGCGGAT | -0.024 |
| ATTTCCCG | 0.149 |
| AAAGGTCT | 0.0132 |
| AGAGTGTA | -0.136 |
| CCTGTTAA | 0.00201 |
| ATAGAACA | -0.0151 |

| Sequence | PBM E-score |
| --- | --- |
| ATGTACTA | 0.207 |
| CCGTGTTA | 0.119 |
| ACCTTTAG | 0.00374 |
| ACTAAGGC | -0.0948 |
| CGTCACTA | 0.374 |
| CCAATCAG | -0.243 |
| AGCGGCAG | -0.113 |
| AGACGCCG | -0.0261 |
| GAAGCCGA | -0.137 |
| TAGGGATA | 0.0598 |
| CAACTGAG | 0.0284 |
| GACAACCA | 0.125 |
| CGGTCAAC | 0.0203 |
| TAGCGCCA | -0.00189 |
| ACTTCAGA | -0.00535 |
| CCCTCCGC | -0.354 |
| AATACACA | 0.081 |
| GGCATCGA | -0.0852 |
| CGGCCCAC | -0.208 |
| GGAATAAC | -0.278 |
| ATGTGGAA | 0.0581 |
| CCTCTTAG | 0.11 |
| CTGGTTAA | 0.108 |
| CTCGTACA | 0.342 |
| TAGTTTGA | 0.219 |

| Sequence | PBM E-score |
| --- | --- |
| CACTCGCG | 0.0197 |
| TATTCACA | 0.16 |
| GCTGGGCC | -0.252 |
| CGGGAATC | -0.14 |
| AGACGAGG | -0.0718 |
| CCTCCTTA | -0.129 |
| AGTAATTA | 0.0132 |
| GAGAAACC | -0.13 |
| ACCTATGG | -0.00968 |
| CTATCCCA | -0.119 |
| AACCGGTG | 0.00684 |
| ACTGTTCG | 0.0935 |
| ATAACGCC | -0.0918 |
| ATCGCGTA | 0.0704 |
| AACTCTTC | -0.0922 |
| TAAACGTA | 0.284 |
| ACGTGTGA | 0.213 |
| GCGATTAA | 0.111 |
| CGTGTCAA | 0.0475 |
| CAGTCCCG | -0.263 |
| GAGGCGTA | -0.0924 |
| CGTGCTAG | -0.0144 |
| AGTAGCTG | -0.21 |
| AACTATAT | 0.205 |
| AAGATTTC | -0.00459 |

Given with each value named: entries from further up.
CACTCGCG
  PBM E-score: 0.0197
CGTGCTAG
  PBM E-score: -0.0144

Continuation:

| Sequence | PBM E-score |
| --- | --- |
| ACCATTTG | -0.049 |
| ATCATCTG | 0.127 |
| AGCTTGAA | -0.106 |
| GAACTAAA | -0.112 |
| TCAGACCA | -0.0912 |
| CCTTATGA | 0.0433 |
| GGAGCGCA | -0.284 |
| CAAGTTAC | 0.0862 |
| CCTTTCAG | -0.0364 |
| ATAGGCGG | -0.0983 |
| GGACAGAC | -0.166 |
| CGCGACAC | 0.0401 |
| ATTTTACC | 0.11 |
| CGCTTCCA | -0.0645 |
| GTTTGGAA | 0.0998 |
| CGTGAGCA | 0.078 |
| CAATACCG | -0.124 |
| ACTTCTCA | 0.119 |
| GACAGTGC | 0.169 |
| AGTGCGTA | -0.179 |
| GAAGGATC | -0.131 |
| ACCACGTA | 0.155 |
| CGAGGAAG | -0.187 |
| CCTTAACG | 0.0166 |
| CACCACCA | -0.164 |

| Sequence | PBM E-score |
| --- | --- |
| AAATGCGG | 0.146 |
| GCCACATA | 0.00455 |
| CGCTTACC | -0.0573 |
| GTTTGAAA | 0.187 |
| ACAATGTG | -0.00828 |
| ACATGCGT | -0.0424 |
| CCATTGGA | -0.21 |
| GATGTGTA | -0.0324 |
| CGACGGAC | 0.151 |
| AAAATGAA | 0.056 |
| CATTTCGC | 0.135 |
| ATCAAGCG | 0.0274 |
| CTTTGCGC | -0.134 |
| AGATCTTA | 0.0519 |
| GCGCATTA | 0.0364 |
| CGTGATGC | 0.0552 |
| CGGGATGC | -0.0802 |
| CCGACGGC | 0.146 |
| CTTGCGCA | 0.0489 |
| GTTACTCA | 0.0462 |
| AATAAGCG | -0.0622 |
| CCCGTAGC | -0.122 |
| CTACACAC | 0.0205 |
| AATTCACA | -0.0127 |
| CAACGTTA | 0.0769 |

| Sequence | PBM E-score |
| --- | --- |
| GACGGGGC | -0.13 |
| TTACTAAA | 0.19 |
| CCTAGGCG | -0.139 |
| CGAAGTGC | 0.188 |
| GTATTCCA | 0.0971 |
| CGTGCAGC | 0.1 |
| ACACAACC | -0.0873 |
| GTCAGAAA | 0.125 |
| CATGATTC | -0.0658 |
| AATAAAAC | 0.0985 |
| GGCAAGTA | -0.0208 |
| ATAATGGA | 0.147 |
| ACATGCTG | -0.0137 |
| ATACTATG | 0.106 |
| ACCCATTC | -0.0423 |
| GGGGGCCA | -0.462 |
| ATTACTAA | 0.0647 |
| AGAGTTCA | -0.208 |
| CATTTGGA | -0.0277 |
| CGGGGGGA | -0.248 |
| GACCCGTC | -0.0995 |
| AGGGCTGG | -0.194 |

Five entries from above, as tab-separated lines:
Sequence	PBM E-score
CCCTCCGC	-0.354
CGTGTCAA	0.0475
CGCTTCCA	-0.0645
GGGGGCCA	-0.462
ATTACTAA	0.0647
